We go through 1 molecule from PMC10001016.

Chains of the proteins cited; added tags and fusions are not shown.
UniProt Q02111: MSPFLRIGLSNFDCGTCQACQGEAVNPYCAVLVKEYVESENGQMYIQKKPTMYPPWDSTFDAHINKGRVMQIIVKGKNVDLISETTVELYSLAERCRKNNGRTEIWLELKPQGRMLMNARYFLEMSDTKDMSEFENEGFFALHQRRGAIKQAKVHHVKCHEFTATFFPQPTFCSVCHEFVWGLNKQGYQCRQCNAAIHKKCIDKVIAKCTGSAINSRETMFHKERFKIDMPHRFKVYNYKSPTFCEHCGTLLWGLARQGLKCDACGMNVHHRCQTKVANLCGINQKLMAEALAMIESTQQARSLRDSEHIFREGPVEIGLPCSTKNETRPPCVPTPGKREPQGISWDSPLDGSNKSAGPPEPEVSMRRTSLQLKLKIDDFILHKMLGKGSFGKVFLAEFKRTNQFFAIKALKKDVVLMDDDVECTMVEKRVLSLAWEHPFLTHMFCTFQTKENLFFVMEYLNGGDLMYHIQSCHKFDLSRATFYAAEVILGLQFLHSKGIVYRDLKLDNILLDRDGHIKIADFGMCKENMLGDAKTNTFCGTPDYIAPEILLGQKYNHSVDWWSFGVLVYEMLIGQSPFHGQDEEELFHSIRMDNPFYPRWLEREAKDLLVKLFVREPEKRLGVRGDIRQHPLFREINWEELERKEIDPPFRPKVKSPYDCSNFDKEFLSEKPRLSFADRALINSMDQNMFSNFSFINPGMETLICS

The assay has as its target PKCθ (not stated (endogenous in PA cell lines; mouse and rat lines were used)) (UniProt Q02111). The experiment in a line: co-IP; lysate of PA cells (IP lysis buffer, phosphorylated protease inhibitors cocktail) incubated with PKCθ antibodies bound to Protein Magnetic Beads; eluted with SDS-PAGE loading buffer; blots for IKKα, p-IKKα/β, IKBα and p-IKBα; cells treated with PMA.

No constants are given. Whether binding was seen depends on the method and setting. In cells and extracts the contact can be indirect. Some results given as binding are weak or reduced against the parent protein; the word gives no strength.

B1: IKKα (enzyme, UniProt Q60680 1-745)
chain: MERPPGLRPGAGGPWEMRERLGTGGFGNVSLYQHRELDLKIAIKSCRLELSSKNRERWCHEIQIMKKLDHANVVKACDVPEELNFLINDVPLLAMEYCSGGDLRKLLNKPENCCGLKESQILSLLSDIGSGIRYLHENKIIHRDLKPENIVLQDVGGKTIHKIIDLGYAKDVDQGSLCTSFVGTLQYLAPELFENKPYTATVDYWSFGTMVFECIAGYRPFLHHLQPFTWHEKIKKKDPKCIFACEEMTGEVRFSSHLPQPNSLCSLIVEPMESWLQLMLNWDPQQRGGPIDLTLKQPRCFALMDHILNLKIVHILNMTSAKIISFLLPCDESLHSLQSRIERETGINTGSQELLSETGISLDPRKPASQCVLDGVRGCDSYMVYLFDKSKTVYEGPFASRSLSDCVNYIVQDSKIQLPIIQLRKVWAEAVHYVSGLKEDYSRLFQGQRAAMLSLLRYNANLTKMKNTLISASQQLKAKLEFFRKSIQLDLERYSEQMTYGISSEKMLKAWKEMEEKAIHYSEVGVIGYLEDQIMSLHTEIMELQKSPYGRRQGDLMESLEQRAIDLYKQLKHRPPDHLYSDSTEMVKIIVHTVQSQDRVLKELFGHLSKLLGCKQKIIDLLPKVEVALSNIKEADNTVMFMQGKRQKEIWHLLKIACTQSSARSLVGSSLEGTVTPPVSAWLPPTLADREHPLTCVVTPQDGETLAQMIEENLNCLGHLSTIIREANEDQSSSLMSLDWSWLAE
Consider B1, for which the binding result is listed as “binds”.
